What all share (assay): glycan array binding signal (z-score within array); higher = stronger binding
Holding throughout (conditions): glycan notation: IUPAC condensed, linker removed

In test [1] the target is Gal(b1-3)[Fuc(a1-4)]GlcNAc. Summed up:
(§1)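 Columns mapping to the same glycan were averaged after glycan names were converted to IUPAC-condensed notation. The data come from 3228 arrays in the Consortium for Functional Glycomics database, limited to those with an available protein sequence. Binding is reported as a within-array Z-score averaged across arrays of one protein sequence and across linkers.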

For test [2], the target named is Gal(b1-3)[Fuc(a1-4)]GlcNAc(b1-2)Man(a1-3)[Gal(b1-3)[Fuc(a1-4)]GlcNAc(b1-2)Man(a1-6)]Man(b1-4)GlcNAc(b1-4)GlcNAc. Summed up: as §1
In test [3] the target is Gal(b1-3)[Fuc(a1-4)]GlcNAc(b1-2)Man(a1-3)[Gal(b1-3)[Fuc(a1-4)]GlcNAc(b1-2)Man(a1-6)]Man(b1-4)GlcNAc(b1-4)[Fuc(a1-6)]GlcNAc. In outline: as §1
The target in test [4] is Gal(b1-3)[Fuc(a1-4)]GlcNAc(b1-3)Gal(b1-3)[Fuc(a1-4)]GlcNAc. Summed up: as §1
In test [5] the target is Gal(b1-3)[Fuc(a1-4)]GlcNAc(b1-3)Gal(b1-4)GlcNAc. Summed up:
as §1

Test [6] has as its target Gal(b1-3)[Fuc(a1-4)]GlcNAc(b1-3)Gal(b1-4)[Fuc(a1-3)]GlcNAc. In outline: as §1
The target in test [7] is Gal(b1-3)[GlcNAc(b1-6)]GalNAc. Summed up:
as §1

Test [8] concerns the target Gal(b1-3)[Neu5Ac(a2-6)]GalNAc. In outline:
as §1

Test [9] addresses Gal(b1-3)[Neu5Ac(a2-6)]GlcNAc(b1-6)Gal(b1-4)Glc. In outline:
as §1

Test [10] addresses Gal(b1-3)[Neu5Ac(b2-6)]GalNAc. In outline:
as §1

Test [11] deals with Gal(b1-4)GalNAc(a1-3)[Fuc(a1-2)]Gal(b1-4)GlcNAc. Summed up:
as §1

Test [12] deals with Gal(b1-4)GalNAc(b1-3)[Fuc(a1-2)]Gal(b1-4)GlcNAc. Summed up:
as §1

The target of a further test is Gal(b1-4)Glc. Summed up:
as §1

The next test deals with Gal(b1-4)Glc6S. Summed up: as §1
A further test has as its target Gal(b1-4)GlcNAc. In outline:
as §1

Test [13] deals with Gal(b1-4)GlcNAc(a1-6)Gal(b1-4)GlcNAc. Summed up: as §1
The target of test [14] is Gal(b1-4)GlcNAc(b1-2)Man(a1-3)Man(b1-4)GlcNAc(b1-4)GlcNAc. Summed up: as §1
Test [15] addresses Gal(b1-4)GlcNAc(b1-2)Man(a1-3)[Gal(b1-4)GlcNAc(b1-2)Man(a1-6)]Man(b1-4)GlcNAc(b1-4)GlcNAc. Summed up: as §1
Test [16] concerns the target Gal(b1-4)GlcNAc(b1-2)Man(a1-3)[Gal(b1-4)GlcNAc(b1-2)Man(a1-6)]Man(b1-4)GlcNAc(b1-4)[Fuc(a1-6)]GlcNAc. In outline: as §1
Test [17] addresses Gal(b1-4)GlcNAc(b1-2)Man(a1-3)[GlcNAc(b1-2)Man(a1-6)]Man(b1-4)GlcNAc(b1-4)GlcNAc. In outline: as §1
Test [18] addresses Gal(b1-4)GlcNAc(b1-2)Man(a1-3)[Man(a1-6)]Man(b1-4)GlcNAc(b1-4)GlcNAc. Summed up: as §1
Test [19] addresses Gal(b1-4)GlcNAc(b1-2)Man(a1-6)Man(b1-4)GlcNAc(b1-4)GlcNAc. In outline:
as §1

The list shows a part of the results.

These results are taken from the supplement of paper PMC8728848.

B1: SspB (Streptococcus gordonii), P16952 (protein)
chain: MKNKKEVYGFRKSKVAKTLCGAVLGTALIAFADKAVFADEVTETTSTSTVEVATTGNPATNLPEAQGEMSQVAKESQAKAGSKESALPVEVSSADLDKAVADAKSAGVKVVQDETKDKGTATTATDNAQKQDEIKSDYAKQAEEIKTTTEAYKKEVAAHQAETDKINAENKAADDKYQKDLKSHQEEVEKINTANATAKAEYEAKLAQYQKDLATVKKANEDSQQDYQNKLSAYQTELARVQKANAEAKEAYEKAVKENTAKNEALKVENEAIKQRNETAKATYEAAMKQYEADLAAIKKANEDNDADYQAKLAAYQTELARVQKANAEAKEAYDKAVKENTAKNTAIQAENEAIKQRNETAKATYDAAVKKYEADLAAVKQANATNEADYQAKLAAYQTELARVQKANADAKATYEKAVEDNKAKNAAIKAENEEIKQRNAVAKTDYEAKLAKYEADLAKYKKEFAAYTAALAEAESKKKQDGYLSEPRSQSLNFKSEPNAIRTIDSSVHQYGQQELDALVKSWGISPTNPDRKKSRAYSYFNAINSNNTYAKLVLEKDKPVDVTYTGLKNSSFNGKKISKVVYTYTLKETGFNDGTKMTMFASSDPTVTAWYNDYFTSTNINVKVKFYDEEGQLMNLTGGLVNFSSLNRGNGSGAIDKDAIESVRNFNGRYIPISGSSIKIHENNSAYADSSNAEKSLGARWNTSEWDTTSSPNNWYGAIVGEITQSEISFNMASSKSGNIWFAFNSNINAIGVPTKPVAPTAPTQPMYETEKPLEPAPVAPSYENEPTPPVKTPDQPEPSKPEEPTYETEKPLEPAPVAPSYENEPTPPVKTPDQPEPSKPEEPNYETEKPLEPAPVAPSYENEPTPPVKIPDQPEPSKPEEPTYDPLPTPPLAPTPKQLPTPPVVPTVHFHYSSLLAQPQINKEIKNEDGVDIDRTLVAKQSIVKFELKTEALTAGRPKTTSFVLVDPLPTGYKFDLDATKAASTGFDTTYDEASHTVTFKATDETLATYNADLTKPVETLHPTVVGRVLNDGATYTNNFTLTVNDAYGIKSNVVRVTTPGKPNDPDNPNNNYIKPTKVNKNKEGLNIDGKEVLAGSTNYYELTWDLDQYKGDKSSKEAIQNGFYYVDDYPEEALDVRPDLVKVADEKGNQVSGVSVQQYDSLEAAPKKVQDLLKKANITVKGAFQLFSADNPEEFYKQYVATGTSLVITDPMTVKSEFGKTGGKYENKAYQIDFGNGYATEVVVNNVPKITPKKDVTVSLDPTSENLDGQTVQLYQTFNYRLIGGLIPQNHSEELEDYSFVDDYDQAGDQYTGNYKTFSSLNLTMKDGSVIKAGTDLTSQTTAETDATNGIVTVRFKEDFLQKISLDSPFQAETYLQMRRIAIGTFENTYVNTVNKVAYASNTVRTTTPIPRTPDKPTPIPTPKPKDPDKPETPKEPKVPSPKVEDPSAPIPVSVGKELTTLPKTGTNDATYMPYLGLAALVGFLGLGLAKRKED
As to B1, the “glycan array binding signal (z-score)” value in test [1] is -1.32; in test [2], -1.27; in test [3], 1.17; in [4], 0.033; in test [5], -0.661; in [6] it was -0.848. The “glycan array binding signal (z-score)” value in test [7] is -0.255; in [8] it was -1.48; in [9], 0.473; in test [10] it was -0.113; in test [11] it was -0.819; in [12], -0.894. Moreover, the “glycan array binding signal (z-score)” value in the test with Gal(b1-4)Glc is -0.34; with Gal(b1-4)Glc6S it was -0.905; with Gal(b1-4)GlcNAc, -1.08; in test [13] it was 0.695; in [14] it was -0.803; in test [15] it was -0.803. Besides, the “glycan array binding signal (z-score)” value is -0.46 in test [16], -0.867 in [17], 1.01 in test [18] and -0.385 in test [19].
